# Assay results reported in PubChem BioAssay AID493014 (National Center for Advancing Translational Sciences (NCATS), 2011).
# The other results are listed elsewhere or left out. These are further read-outs of the screen, such as a control signal, another cell line or another target. No call is given for them. Compounds called inactive in the main read-out are mostly missing here. Potencies come from curve fits of mixed quality, noted in brackets.
# Assay: qHTS Assay to Find Inhibitors of Chronic Active B-Cell Receptor Signaling
# Conditions: ABC-DLBCL IkBa-CBG/CBR reporter, luminescence ratio (green luciferase fused to IkBa over red control in TMD8 lymphoma cells), 4 h
# How it was run: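 TMD8 ABC-DLBCL cells carrying doxycycline-inducible green luciferase fused to IkappaBalpha plus unfused red luciferase were exposed to compounds (up to 46 uM) for 4 hrs at 37C. Activity came from the overlap-corrected green/red luminescence ratio.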
# [1] = measured here: CBR red luminescence, cell number
# [2] = measured here: IkBa-CBG green luminescence
smiles,measurement,setting,value
O=C(NCc1ccccn1)c1ccc2c(c1)N(Cc1ccccc1)CCS2,AC50,[1],"0.0891 µM [falling, full curve, poor fit]"
Cc1[nH]c2ccccc2c1N=Nc1ccc(F)cc1,AC50,[1],"2.82 µM [rising, partial curve, poor fit]"
O=C1C(NS(=O)(=O)c2cccs2)=C(N2CCN(c3cccc(C(F)(F)F)c3)CC2)C(=O)c2ccccc21,AC50,[1],"6.51 µM [rising, single point]"
Cc1[nH]c2ccccc2c1SCC(=O)NNC(=O)Nc1ccc(OC(F)(F)F)cc1,AC50,[1],"17.8 µM [falling, partial curve, poor fit]"
O=C(Nc1cccc2cccnc12)c1ccc(Br)cc1Br,AC50,[1],"8.91 µM [rising, partial curve]"
CCC(=O)N1CCCc2cc(S(=O)(=O)N3CCN(c4ccccc4F)CC3)ccc21,AC50,[1],"23.1 µM [falling, single point]"
Cc1csc(NC(=O)c2ccc(S(=O)(=O)N3CCN(C)CC3)cc2)n1,AC50,[1],"5.62 µM [falling, partial curve, poor fit]"
c1ccc(OCCn2c(-c3ccco3)nc3ccccc32)cc1,AC50,[1],"6.31 µM [falling, partial curve]"
CCCCn1nnnc1SCC(=O)Nc1ccc(N(C)C)cc1,AC50,[1],"0.146 µM [rising, full curve, poor fit]"
COc1ccc(C2OC(=O)CC2C(=O)NCc2ccccc2Cl)cc1OC (stereo unspecified),AC50,[1],"12.6 µM [rising, partial curve, poor fit]"
CCn1cnc2scc(-c3ccc(C)c(C)c3)c2c1=O,AC50,[1],"20 µM [falling, partial curve, poor fit]"
COC(=O)c1cc2ccccc2n1Cc1ccc(Cl)nc1,AC50,[1],"0.398 µM [rising, full curve, poor fit]"
Cn1c(OCc2ccco2)nc2c1c(=O)n(Cc1ccc(Cl)c(Cl)c1)c(=O)n2C,AC50,[1],"25.9 µM [falling, single point]"
N#Cc1c(Nc2ccc(F)cc2)sc(C(=O)c2ccccc2)c1N,AC50,[1],"1.03 µM [rising, partial curve, poor fit]"
Cc1nc2cc(N3CCOCC3)c(NC(=O)C3CC3)cc2c(=O)n1Cc1ccccc1,AC50,[1],"35.5 µM [rising, single point]"
Cc1cc(C)c(S(=O)(=O)/N=C2\C=C(Nc3ccc(C(=O)O)cc3)C(=O)c3ccccc32)c(C)c1,AC50,[1],"1.78 µM [falling, full curve]"
COc1ccc(-c2nnn(CC(=O)N(CC(=O)NC3CCCC3)c3cccc(C)c3)n2)cc1OC,AC50,[1],"6.31 µM [falling, single point]"
c1ccc(-c2cc3nccc(-c4ccccn4)n3n2)cc1,AC50,[1],"29.1 µM [falling, single point]"
CCN(CC)CCN1C(=O)C(=O)/C(=C(/O)c2c(C)[nH]c(C(=O)OC)c2C)C1c1cccc(OC)c1 (stereo unspecified),AC50,[1],"12.6 µM [falling, partial curve]"
[N-]=C=C1C(=S)NC(=O)[C@H]([n+]2ccccc2)[C@H]1c1ccc(Cl)cc1,AC50,[1],"0.282 µM [falling, full curve, poor fit]"
Cn1c(=O)c2c(ncn2CC(=O)OCC(=O)Nc2ccc(F)cc2Cl)n(C)c1=O,AC50,[1],"3.26 µM [rising, full curve, poor fit]"
Cn1nnc2cc(C(=O)N3CCC(c4ccccc4)C3)ccc21 (stereo unspecified),AC50,[1],"5.8 µM [rising, full curve, poor fit]"
CCOc1cc(/C=N\Nc2ncc(F)c(N3CCOCC3)n2)ccc1Oc1nc(Cl)ncc1F,AC50,[1],"20 µM [falling, single point]"
CN(C)S(=O)(=O)Oc1ccsc1C(=O)Nc1ccc(C(F)(F)F)cc1,AC50,[1],"1 µM [rising, partial curve, poor fit]"
CCNC(=S)NNC(=O)c1csc2ccccc12,AC50,[1],"15.8 µM [falling, single point]"
Cc1cc(C)c2c(N)c(C(=O)NN3CC(=O)N(c4cccc(Cl)c4)CC3=O)sc2n1,AC50,[1],"7.94 µM [falling, partial curve, poor fit]"
COC(=O)COc1cccc(/C=N/NC(=O)CCSc2ccccc2)c1,AC50,[1],"35.5 µM [falling, single point]"
CC(C)c1ccc(-c2nc3c([nH]2)c(=O)n(C)c(=O)n3C)cc1,AC50,[1],"0.058 µM [falling, full curve, poor fit]"
Cc1cccc(NC(=S)NC(=O)c2cccs2)n1,AC50,[1],"0.1 µM [rising, full curve, poor fit]"
same,AC50,[2],"28.2 µM [falling, single point]"
O=C(Nc1cccc(O)c1)C(=O)Nc1ccccn1,AC50,[1],"0.291 µM [falling, full curve]"
CCNc1nc(CSc2ccccc2)nc2sc(C)c(C)c12,AC50,[1],"1.84 µM [rising, partial curve, poor fit]"
CCOC(=O)C1C(=O)NC(c2ccccc2)=NC1c1cccc(Br)c1 (stereo unspecified),AC50,[1],"0.631 µM [rising, full curve, poor fit]"
O=C(NCCc1ccccc1)c1ccco1,AC50,[1],"29.1 µM [falling, single point]"
O=C(NCCOc1ccccc1Cl)C(=O)c1c[nH]c2ccccc12,AC50,[1],"35.5 µM [falling, single point]"
CC(=O)C1=C(O)C(=O)N(CC(=O)O)C1c1ccccc1Cl (stereo unspecified),AC50,[1],"16.4 µM [falling, single point]"
Cc1noc(C)c1COc1cccc(C(=O)Nc2ccc3c(c2)OCO3)c1,AC50,[1],"7.94 µM [falling, partial curve, poor fit]"
CC1=C(CCN2CCN(C3CCCC3)C(CCO)C2)C(C)(C)CCC1 (stereo unspecified),AC50,[1],"7.08 µM [rising, partial curve, poor fit]"
O=C(Nc1ccc(Oc2ccc(C(=O)O)c(C(=O)O)c2)cc1)c1cccs1,AC50,[1],"35.5 µM [falling, single point]"
O=C(c1cc2c([nH]c1=O)CCCC2)N1CCc2c([nH]c3ccccc23)C1c1ccccc1F (stereo unspecified),AC50,[1],"6.31 µM [falling, single point]"
O=C(CSc1nncc2ccccc12)Nc1cccc(C(=O)O)c1,AC50,[1],"7.08 µM [falling, full curve]"
OCCC1CN(Cc2cccn2-c2ccccn2)CCN1Cc1ccccc1 (stereo unspecified),AC50,[1],"6.31 µM [rising, single point]"
Cc1cnn(CCC(=O)NNC(=S)Nc2ccc(F)cc2)c1,AC50,[1],"35.5 µM [rising, single point]"
same,AC50,[2],"17.8 µM [falling, single point]"
O=C(NCc1ccc2c(c1)OCO2)c1ccc(S(=O)(=O)C(F)F)cc1,AC50,[1],"4.47 µM [falling, partial curve, poor fit]"
Clc1ccc(/C=N/Nc2ccccn2)cc1,AC50,[1],"0.562 µM [rising, full curve, poor fit]"
C[n+]1c2n(c3ccccc31)N=C(c1ccc(Br)cc1)CS2,AC50,[1],"29.1 µM [rising, single point]"
O=C(Cn1cnc2ccccc2c1=O)c1ccc2c(c1)OCCO2,AC50,[1],"0.447 µM [falling, full curve, poor fit]"
CCN(CC)CC(=O)NC1CC(C)(C)Cc2c1cnn2-c1ccc(F)cc1 (stereo unspecified),AC50,[1],"2 µM [rising, partial curve, poor fit]"
O=C(Nc1ccccc1)N1CCN(c2ncccn2)CC1,AC50,[1],"18.4 µM [falling, partial curve]"
CCOC(=O)c1cc2c(n(-c3ccccc3)c1=O)CC(C)(C)CC2=O,AC50,[1],"29.1 µM [falling, partial curve, poor fit]"
O=C(COC(=O)c1cc([N+](=O)[O-])ccc1N1CCOCC1)Nc1ccccc1OC(F)F,AC50,[1],"0.411 µM [rising, full curve, poor fit]"
CCN(CCn1cccn1)C(=O)CCc1nnc(C2(c3ccc(Cl)cc3)CCC2)o1,AC50,[1],"4.47 µM [rising, full curve]"
O=C(OCC(=O)c1cccs1)c1ccc(NC(=O)c2ccco2)cc1,AC50,[1],"6.51 µM [rising, single point]"
COc1ccc(/C=N/NC(=O)CNS(=O)(=O)c2ccc(C)cc2)cc1,AC50,[1],"0.1 µM [rising, full curve, poor fit]"
COC(=O)c1ccc(C)c(NC(=O)c2ccc(Cl)c([N+](=O)[O-])c2)c1,AC50,[1],"8.2 µM [rising, partial curve, poor fit]"
CCOC(=O)c1cc(-c2ccco2)nn1-c1ccc(C)cc1,AC50,[1],"11.2 µM [rising, partial curve]"
COc1ccc(/C=N\NC(=O)c2ccc(=O)[nH]n2)cc1O,AC50,[1],"29.1 µM [falling, single point]"
CCn1cc(C(=O)NCc2cccnc2)c2cc(OC)c(OC)cc2c1=O,AC50,[1],"6.51 µM [rising, single point]"
S=C(Nc1ccccn1)Nc1ccccc1Cl,AC50,[1],"11.2 µM [rising, single point]"
same,AC50,[2],"12.6 µM [falling, partial curve, poor fit]"
Cn1c(SCC(=O)N2CCc3ccccc3C2)nnc1-c1ccncc1,AC50,[1],"6.51 µM [rising, single point]"
CCS(=O)(=O)C1=NN2C(=N)/C(=C\c3ccc(SCc4ccco4)o3)C(=O)N=C2S1,AC50,[1],"35.5 µM [rising, single point]"
COc1ccc(OC)c(C(=O)CSc2nc3ncccc3[nH]2)c1,AC50,[1],"15.8 µM [falling, single point]"
O=C(O)C(Cc1c[nH]c2ccccc12)N1C(=O)C2C3c4ccccc4C(c4ccccc43)C2C1=O (stereo unspecified),AC50,[1],"15.8 µM [falling, partial curve, poor fit]"
CC[C@@H]1[C@H]2CCCC(=O)N3CC[C@@H](C[C@@H]1Nc1ccccc1)[C@@H]23,AC50,[1],"7.08 µM [falling, partial curve, poor fit]"

# Nothing new here: an excerpt of the list.
smiles,measurement,setting,value
Cc1cnn(CCC(=O)NNC(=S)Nc2ccc(F)cc2)c1,AC50,[2],"17.8 µM [falling, single point]"
O=C(NCc1ccc2c(c1)OCO2)c1ccc(S(=O)(=O)C(F)F)cc1,AC50,[1],"4.47 µM [falling, partial curve, poor fit]"
